Source: publication PMC12485490
No constants are given. Whether binding was seen depends on the method and setting. In cells and extracts the contact can be indirect. Some results given as binding are weak or reduced against the parent protein; the word gives no strength. Sequences can lack the tags named with a protein.

Amino acid sequences for entries named in this document (tags omitted).
UniProt P0AAI3: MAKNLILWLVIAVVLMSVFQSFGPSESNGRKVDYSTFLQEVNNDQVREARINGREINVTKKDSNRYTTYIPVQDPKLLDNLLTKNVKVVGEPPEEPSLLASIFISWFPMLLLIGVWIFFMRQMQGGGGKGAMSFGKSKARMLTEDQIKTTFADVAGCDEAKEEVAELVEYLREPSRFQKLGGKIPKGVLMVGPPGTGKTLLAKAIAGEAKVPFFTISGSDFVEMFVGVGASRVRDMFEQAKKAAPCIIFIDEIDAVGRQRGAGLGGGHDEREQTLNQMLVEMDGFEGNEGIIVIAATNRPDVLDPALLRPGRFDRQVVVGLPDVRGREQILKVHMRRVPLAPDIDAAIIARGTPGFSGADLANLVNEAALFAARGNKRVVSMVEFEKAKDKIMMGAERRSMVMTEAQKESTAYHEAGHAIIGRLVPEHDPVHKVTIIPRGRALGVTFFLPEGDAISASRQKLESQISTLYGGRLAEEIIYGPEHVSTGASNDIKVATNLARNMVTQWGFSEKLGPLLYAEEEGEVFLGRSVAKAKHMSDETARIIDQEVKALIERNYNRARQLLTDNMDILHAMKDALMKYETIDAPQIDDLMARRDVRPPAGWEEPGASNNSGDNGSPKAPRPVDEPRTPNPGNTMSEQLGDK

Target: T1, YidC with a C-terminal 10xHis tag (Escherichia coli) (UniProt P25714)
T1 sequence: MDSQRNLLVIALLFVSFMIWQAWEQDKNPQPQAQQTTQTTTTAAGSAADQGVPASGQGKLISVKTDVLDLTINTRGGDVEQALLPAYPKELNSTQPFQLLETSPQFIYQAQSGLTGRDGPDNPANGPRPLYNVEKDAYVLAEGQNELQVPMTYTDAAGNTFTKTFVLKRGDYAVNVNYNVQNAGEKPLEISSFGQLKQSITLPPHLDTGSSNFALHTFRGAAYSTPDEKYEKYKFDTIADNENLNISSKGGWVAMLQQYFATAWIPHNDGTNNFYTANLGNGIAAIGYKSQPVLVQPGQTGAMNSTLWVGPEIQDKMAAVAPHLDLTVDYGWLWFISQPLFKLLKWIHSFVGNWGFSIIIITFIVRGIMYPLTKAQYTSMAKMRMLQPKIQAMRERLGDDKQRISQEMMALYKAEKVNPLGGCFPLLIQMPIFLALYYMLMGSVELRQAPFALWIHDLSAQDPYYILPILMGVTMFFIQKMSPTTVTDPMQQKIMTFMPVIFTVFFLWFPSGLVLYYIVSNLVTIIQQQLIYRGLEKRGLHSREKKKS
Assay: pull-down; Ni-NTA affinity purification by the 10xHis tag of YidC from DDM-solubilised, DSP-cross-linked membranes of E. coli C43 (DE3), washes with 1 M NaCl and 50 mM imidazole, then SEC (Superose 6 Increase); 20 mM HEPES pH 7.5; partners found by Western blot and SDS-PAGE or by cryo-EM 2D class averages of the SEC fractions

Substance: FtsH with a C-terminal 3xStrepTag II (from UniProt P0AAI3 1-644) (enzyme)
- binding: binds
